Experimental data from US9951372B2, “Compounds and methods for assaying redox state of metabolically active cells and methods for measuring NAD(P)/NAD(P)H” (PROMEGA CORPORATION, priority 2011, dated 2018).

Assay: Acid extraction of oxidized and reduced dinucleotides, NAD detection reagent with PBI 4312
Conditions: 60 minutes; for Average relative Light Units (RLU), Acid Treatment: 0.3N hydrochloric acid 15 minutes

Row | Compound | Average relative Light Units (RLU), Acid Treatment (125 nM sample) | Average relative Light Units (RLU), No Acid Treatment (125 nM sample) | Average relative Light Units (RLU), Acid Treatment (250 nM sample) | Average relative Light Units (RLU), No Acid Treatment (250 nM sample)
1 | NC(=O)C1=CN([C@@H]2O[C@H](COP(=O)(O)OP(=O)(O)OC[C@H]3O[C@@H](n4cnc5c(N)ncnc54)[C@H](O)[C@@H]3O)[C@@H](O)[C@H]2O)C=CC1 [NADH] | 15,589 RLU | 205,932 RLU | 25002 RLU | 457,580 RLU
2 | NC(=O)c1ccc[n+]([C@@H]2O[C@H](COP(=O)([O-])OP(=O)(O)OC[C@H]3O[C@@H](n4cnc5c(N)ncnc54)[C@H](O)[C@@H]3O)[C@@H](O)[C@H]2O)c1 [NAD] | 216,075 RLU | 202,591 RLU | 433,471 RLU | 391,458 RLU
